From ChEMBL document CHEMBL3988442, “University of Dundee, Small-Polar-MMV Screening Library” (2021).

The filed quantity is “Percent Effect” (%). The controls that fix the scale are not given in the record; negative values are as filed. This is an unselected part of the compounds tested.

Mtb growth Cornell: 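Whole-cell assay for inhibitors of Mycobacterium tuberculosis growth, labelled Cornell in the record; the read-out is not stated. The concentration is filed as 10 mM, unlikely as a test dose, so the dose is not known. The record gives no direction; compounds strong in two other growth screens of this library score well above the rest, so higher reads as stronger inhibition. Size under these conditions: about 53,000 compounds, about 900 of them at 50% or above in at least one test.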
Mtb heat-shock: 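Assay on Mycobacterium tuberculosis, filed only as a heat shock assay from Cornell; the read-out is not stated. The concentration is filed as 10 mM, unlikely as a test dose, so the dose is not known. The record gives no direction; compounds that gave an IC50 in retests scored well above the rest, so higher reads as stronger inhibition. Of about 69,000 compounds tested this way, about 930 (1.4%) reached 50% or more in at least one test.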

Nc1nc(SCc2ccc3c(c2)OCO3)ns1 read Mtb growth Cornell: 27.46%; Mtb heat-shock: 26.9%.
Clc1ccc(C2(NCc3noc(C4CC4)n3)CCOCC2)cc1 read Mtb heat-shock: -4.694%.
CC(C)Oc1ccc(CNC(=O)c2cc(C(N)=O)cs2)cc1F read Mtb growth Cornell: 19.66%; Mtb heat-shock: 10.56%.
O=C(NCC1CC1)Nc1cnc2cc(Cl)ccc2c1O read Mtb growth Cornell: -6.744%; Mtb heat-shock: -11.98%.
COCCCN(C)C1CCCN(Cc2noc(C3CC3)n2)C1 (stereo not given) read Mtb heat-shock: -5.357%.
Cl.O=C(C1CC1)N1CC2(CCNCC2)C1 read Mtb heat-shock: 4.463%.
COc1cc(C)c(S(=O)(=O)NCc2cccnc2N(C)C)c(C)c1 read Mtb growth Cornell: -12.69%; Mtb heat-shock: 26.75%.
O=C(NCC1CCS(=O)(=O)C1)N1CCN(c2cnccn2)CC1 (stereo not given) read Mtb heat-shock: -6.564%.
COc1ccc2c(c1)OCC(Cc1cc(N3CCCC3)cnn1)C2 (stereo not given) read Mtb growth Cornell: 4.667%; Mtb heat-shock: -16.41%.
COCCNC(=O)Nc1ccc(-n2cncn2)c(C(F)(F)F)c1 read Mtb heat-shock: 13.86%.
O=C(O)C(F)(F)F.[H][C@@]12CCN(CCOCc3ccccc3)[C@]1([H])CC[C@H](C(=O)NC)O2 read Mtb growth Cornell: -19.56%; Mtb heat-shock: 16.96%.
COc1cccc(NC(=O)N(CCC(F)(F)F)C[C@H](O)CO)c1 read Mtb heat-shock: -2.76%.
CCc1n[nH]c(C2CN(C(=O)c3ccnc(C4CC4)n3)CCO2)n1 (stereo not given) read Mtb heat-shock: -1.11%.
Cc1cncc(C2CCN(Cc3ccncc3)CC2)n1 read Mtb growth Cornell: 18.56%; Mtb heat-shock: -3.104%.
O=C(CCc1ccccc1F)NC1CCCN(c2ccccn2)C1 (stereo not given) read Mtb growth Cornell: 14.61%; Mtb heat-shock: -8.47%.
O=C(O)C(F)(F)F.O=C(O)C(F)(F)F.O=C1CCC2(CCN(Cc3ccc(F)cc3)CC2)N1CCN1CCCC1 read Mtb growth Cornell: 17.92%; Mtb heat-shock: -0.04733%.
CCn1c(C)nnc1SCCNc1nc(C)nc2ncccc12 read Mtb heat-shock: -30.66%.
[H][C@]12CC[C@]([H])(CN(Cc3cscn3)C1)N(C(=O)Cc1cnccn1)C2 read Mtb growth Cornell: 12.26%; Mtb heat-shock: -4.902%.
O=C(NC1CC1)N1Cc2[nH]nc(COCC3CC3)c2C1 read Mtb growth Cornell: -37.95%; Mtb heat-shock: 22.04%.
O=C(CCNc1ncccn1)Nc1cc(C(F)(F)F)c[nH]c1=O read Mtb heat-shock: -8.509%.
O=C1CCC(CCC(=O)N2CCCC2c2nccs2)=NN1 (stereo not given) read Mtb heat-shock: -17.74%.
CN1CC(Oc2ccccc2)=NC(SCC(=O)Nc2ccccc2Cl)=N1 read Mtb heat-shock: -34.65%.
CCN(CC)Cc1cn2c(n1)CN(C1CCOC1)CC2.O=C(O)C(F)(F)F.O=C(O)C(F)(F)F (stereo not given) read Mtb heat-shock: -23.32%.
CN(C)C(=O)CN1CCC2(CCCN(Cc3cccn3C)C2)C1=O.O=C(O)C(F)(F)F (stereo not given) read Mtb heat-shock: 8.62%.
O=C(Nc1cccc(F)c1)N1CCN(Cc2noc(C3CC3)n2)CC1 read Mtb growth Cornell: 8.481%; Mtb heat-shock: 0.8875%.
c1cc(CN2CCOC3(CCCC3)C2)no1 read Mtb growth Cornell: -13.15%; Mtb heat-shock: 5.342%.
COc1cccc(S(=O)(=O)CCN2CCCC2c2ccc[nH]2)c1 (stereo not given) read Mtb heat-shock: -5.114%.
COc1cc(OC)c(C2CC(=O)Oc3cc(C)[nH]c(=O)c32)c(OC)c1 (stereo not given) read Mtb growth Cornell: 15.91%; Mtb heat-shock: -17.31%.
CCN1C(=O)CCCC12CCCN(C(=O)c1ccoc1)C2 (stereo not given) read Mtb growth Cornell: 8.556%; Mtb heat-shock: 4.702%.
O=C(O)C(F)(F)F.[H][C@]12CCN(C(=O)c3occc3C)C[C@@]1([H])OCCN(C1CCOCC1)C2 read Mtb growth Cornell: 5.741%; Mtb heat-shock: 6.269%.
O[C@H]1[C@H](NCCc2ccccn2)c2ccccc2C12CCNCC2 read Mtb growth Cornell: 8.743%; Mtb heat-shock: -1.091%.
Nc1ncccc1CN1CCOCC1CC(=O)NCc1ccccn1 (stereo not given) read Mtb heat-shock: -18.05%.
CCOC(=O)c1n[nH]cc1-c1cncn1CC(C)n1nc(C)cc1C (stereo not given) read Mtb growth Cornell: -15.99%; Mtb heat-shock: 10.22%.
Cc1cc(C)cc(OCC(=O)NC2CCN(S(C)(=O)=O)CC2)c1 read Mtb growth Cornell: -12.54%; Mtb heat-shock: 0.6581%.
COc1ccccc1CN(CC1CCCO1)C(=O)c1ccc(F)cn1 (stereo not given) read Mtb heat-shock: 9.648%.
O=C(O)C(F)(F)F.O=C(O)C(F)(F)F.[H][C@@]12CCCO[C@]1([H])[C@H](Nc1ccccn1)CN(Cc1scnc1C)C2 read Mtb heat-shock: -25.23%.
Cn1nnc2c1CCN(C(=O)C1CC1)C2COCCN1CCCC1.O=C(O)C(F)(F)F (stereo not given) read Mtb growth Cornell: 3.371%; Mtb heat-shock: -18.19%.
CCC1(C(=O)O)CCCN(CCOCc2ccccc2)C1 (stereo not given) read Mtb growth Cornell: 22.64%; Mtb heat-shock: -25.66%.
CSCC[C@@H](CO)NC(=O)c1sc(-c2ccc(Cl)cc2)nc1C read Mtb growth Cornell: 17.07%; Mtb heat-shock: 4.394%.
Cc1cnn(C2CCCN(C(=O)CCCNc3ncccn3)C2)c1 (stereo not given) read Mtb growth Cornell: 0.8313%; Mtb heat-shock: -2.775%.
[H][C@]12CC[C@]([H])(CN(C(=O)c3c[nH]c(=O)c(Cl)c3)C1)N(Cc1ccccc1)C2 read Mtb growth Cornell: 25.64%; Mtb heat-shock: -6.424%.
CCc1cc(CNC(=O)N(C2CC2)C(C)c2ccco2)on1 (stereo not given) read Mtb growth Cornell: -18.91%; Mtb heat-shock: -6.979%.
[H][C@@]12CCN(C(=O)c3ccnnc3)C[C@@]1([H])O[C@@H](c1nc(C)c(C)s1)C2 read Mtb growth Cornell: 9.239%; Mtb heat-shock: -3.925%.
Cc1cc(C)cc(N(CCC#N)C(=O)CN2CCCC2c2cccs2)c1 (stereo not given) read Mtb growth Cornell: -27%; Mtb heat-shock: -2.233%.
CN1CCC/C1=N\S(=O)(=O)c1ccc(NC(=O)CCc2cccs2)cc1 read Mtb growth Cornell: 19.75%; Mtb heat-shock: 14.77%.
COc1ccccc1OCCCc1cccc(C#N)n1 read Mtb growth Cornell: 29.26%; Mtb heat-shock: -10.03%.

Some entries from above, unchanged:

{"compound": "O=C(O)C(F)(F)F.O=C(O)C(F)(F)F.[H][C@@]12CCCO[C@]1([H])[C@H](Nc1ccccn1)CN(Cc1scnc1C)C2", "Mtb heat-shock": -25.23}
{"compound": "Cc1cc(C)cc(N(CCC#N)C(=O)CN2CCCC2c2cccs2)c1", "stereo": "stereo not given", "Mtb growth Cornell": -27, "Mtb heat-shock": -2.233}
{"compound": "Cn1nnc2c1CCN(C(=O)C1CC1)C2COCCN1CCCC1.O=C(O)C(F)(F)F", "stereo": "stereo not given", "Mtb growth Cornell": 3.371, "Mtb heat-shock": -18.19}
{"compound": "Nc1ncccc1CN1CCOCC1CC(=O)NCc1ccccn1", "stereo": "stereo not given", "Mtb heat-shock": -18.05}